The text below walks through data of PubChem BioAssay AID1508600 (Functional Genomics Laboratory (NCATS/FGL), 2020).

In all, about 53,000 sequences went through this assay and about 3,700 (7%) were called active.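 The calls were made as follows: active = gene knockdowns whose robust z-score for IL-1 alpha signal is at least 2 or at most -2, so actives lie on both sides; inactive = the rest.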 Some of the results follow.

The assay is described as follows: Components of the Cytosolic LPS Sensing Pathway: Gene Identification via Genome-wide siRNA Screen.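 Also: robust z of the log signal after scaling to non-targeting control siRNA wells of the plate.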 The settings on record: RAW264.7 macrophages, IL-1a HTRF, actives lie on both sides, screened at 100 nM (by protocol), cells primed 5 h with Pam3CSK4 first. An outline of the steps: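 Cells (RAW264.7, 1×10^4 per well) were transfected with siRNA at 100 nM and cultured 48h at 37 degrees C. Pam3CSK4 was added for 5 hours; LipidA transfection followed for 24 hour. IL-1a was then measured by HTRF.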
In general terms: In TR-FRET formats the signal depends on donor and acceptor labels being close together.
Consider GGUGUCAUUAGCUUUACUUTT against Armc1, for which the z-score was inactive: 1.94.
The figure for CCAACGUGUCCUUGCUCAATT against Tsks is inactive: -1.28; for GCUCAACCGUAACAUCCAGTT against Krt77 it is inactive: 0.614.
The figure for CGGCUCACUAGCAGUGUCUTT against Ppm1b is inactive: -0.209; for GGAAAAGGUGUUCUGUUUUTT against Ankef1 it is inactive: 0.165; for “GGAGAAACUUCUUUAAAGCTT against 5830427D03Rik” it is inactive: 0.573.
The value for CCAUAAACUAUGAGUUUUGTT against Elovl7 was active: 2.4; that for GGGCUACUCAAAGAAGAUATT against Galnt5 was inactive: -0.357.
As to GGAUUUUAACAAAUUCUGCTT against Phf23, the z-score is inactive: 0.813.
The value for GGUAGAUCAGUAAUAGUUATT against Glrb was inactive: 0.837.
The value for GGUGAUUGUACUGUCAGCUTT against Olfr1221 was inactive: 0.0275; that for GGCUUUGUGCUUUAACCUUTT against Tceal5 was inactive: -0.838.
The value for GGAUUAAAUGCCUUGAAGGTT against Niban1 was inactive: 0.452; that for GGAUGCUCUAAGUUGGAGUTT against Tinf2 was inactive: -0.193.
With GGGAUUGUUCAAAUGCUAUTT against Cldn8, the z-score was inactive: 1.21.
Take GGCCUGAAGAAACACGAGATT against C1qtnf1: the z-score was inactive: -0.00127.
The value for GGAAAUUCCGAGGAUGGAATT against H2-M3 was inactive: 0.226; that for GGAACAACAGGCAAUGAAUTT against Zfp874a was inactive: 1.15.
The figure for GCUGAAACCGCUAUUAAAUTT against Pou3f4 is inactive: 0.529; for GCUACCAACCAUUAAGAUATT against Lipk it is inactive: -1.21; for GCGAAGGAUGAUGUGUAUUTT against Magt1 it is inactive: 0.547.
The figure for CCCAAAACUACGACUCCUGTT against Dpf3 is inactive: -1.82; for GGUAUGAUCCAGUAAUCCUTT against Vmn1r5 it is inactive: 0.243; for GGACAAAGGUGAAAACGGUTT against Gpr19 it is inactive: 1.28.
Regarding CCUGCACCAUAAGAAAUCUTT against Fndc3c1, the z-score is inactive: 0.416.
The figure for CGAUGAGCCUUUUAAUUGUTT against Zfp871 is inactive: 1.04.
The figure for GGUUAUCAUGAGGCCUUGGTT against Olfr1339 is active: -2.38.
With GGGCUAUAACCCUGAAGAUTT against Rarg, the z-score was inactive: -0.087.
On to CGGUUGUUAAAAAAAGUCATT against Atad2, for which the z-score was inactive: -1.24.
The value for CCAUUGUAUAGGAAAGUGATT against Nras was inactive: 0.615; that for “GCCAUGUUCCCAUUUAACUTT against A730018C14Rik” was inactive: 1.34; that for GGAGGGACAUUAAACUAUUTT against Chchd3 was inactive: 1.18.
The figure for GGAAGUUCAGAACUCAGUUTT against Mob4 is inactive: -1.23.
The value for GUAUGAACCUAACACAUUCTT against Vmn1r188 was inactive: 0.493.
For CGUAGCACUUCUUCUCUUATT against Dync1li2, the z-score was inactive: 0.484.
As for GGAUUCAGCCCUGGUUUCATT against Wbp1, the z-score is inactive: 0.459.
The value for GCUUUGAUGACAAAAGUUCTT against Prdx6 was inactive: -0.109.
For the sequence GGGCUCGUUAAUCUUUUACTT against Nop10, the z-score is inactive: 0.753.
On to GCUCAGCGACUGGCAAAGATT against Mrpl46, for which the z-score is inactive: 0.274.
The value for GCUAAGGUCUUACUCCUGGTT against Cdca4 was inactive: 1.13; that for GGGUUAGGGUAUAAAAGAUTT against Kcna7 was inactive: -0.373; that for “GGAGAGAACGCAGAGAUACTT against 1700019N19Rik” was inactive: 1.34.
The figure for GGAAGAGGAGGAACAGAGATT against Ino80b is inactive: -1.45; for GGAUGACAUGAAAAUGGAATT against Llph it is inactive: -0.559.
The figure for CCCAAGAAUACCAGUGUCGTT against Sdk2 is inactive: -1.03.
As to GCAUAAUAAGCCAAUUCUGTT against Med17, the z-score is inactive: -0.355.
The value for GCUUCUUCUAUUCAUCAUUTT against Olfr933 was inactive: -0.174; that for CCAGGUAGAGCAAUUUCUATT against Hpdl was inactive: -0.267.
The value for GGCCAUAGCCUAGCAUAACTT against Wdr4 was inactive: -1.28; that for GCUAGUCGACAAUUAUUACTT against Pcdhga1 was inactive: 1.36.
The figure for GGACAAACUAUGGUACCAGTT against Phldb1 is inactive: -1.55.
GGCUGCUUUCUGAUGGUCATT against Marchf3: the z-score was inactive: 0.595.
The value for GGAACGUGAACUUUGUAUUTT against Nek2 was inactive: 0.337.
The value for GGCCUCGUACUCCAUAAGUTT against Lrwd1 was inactive: -0.209; that for CCAUAAUUAGGGAAUCCAGTT against Itga5 was inactive: -0.755.
In the case of GGCACUGCCAUUAACAAAATT against Nrip1, the z-score is inactive: 0.0122.
The figure for GCUCGUAGCUUUCAACAAATT against Igdcc4 is inactive: 0.228; for GGGAGCUAAGUACAGCAAGTT against Abt1 it is inactive: -0.274; for GGUCUGUGGGAAACAUAAATT against Gria3 it is inactive: -0.233.
As for GGUUAUGAGGAACAAUUAGTT against Klk11, the z-score was inactive: -1.28.
The figure for CCAUGAUUAAGGGUCUCUATT against Ldha is inactive: 0.111; for GGAGAUUAUCAGGGAAGAGTT against Nectin3 it is inactive: 0.884.
The figure for GGAGUCUUCUGGAUAAACATT against Slc44a2 is inactive: 0.776.
The figure for GCAUCAGAUAUCAGGGCAUTT against Pabpc2 is inactive: -0.255; for GAGGAGCAAAUCCCGGUGATT against Prm3 it is inactive: -1.41.
Regarding GCAACGCACCGCUUACUAATT against Smarcc2, the z-score is inactive: 0.71.
The figure for CCGACUACCUUUCUUCACCTT against Cdh23 is inactive: -1.24.
The figure for CGGCCUGGGUCCCGUGGACTT against Hs3st6 is inactive: -1.18.
The figure for GGCUACAGAAGCUACUAAATT against Akr1c6 is inactive: 1.23; for CCGUGGAAACAGUCCUGAATT against Nudcd1 it is inactive: 0.646.
In the case of GGAUGAAGUGGCCAUAAAUTT against Olfr791, the z-score was inactive: -0.46.
Consider GGCACUUCGUAUAAAGACCTT against Hadhb, for which the z-score is inactive: -1.53.
The value for CCUUUCCGACGAUAGGACCTT against Piga was inactive: -0.758.
The value for GGGAAGUGACCAUCAAGAATT against Slc8a3 was active: 2.56; that for GCGAACAAAAUGAGGACUUTT against Dusp23 was inactive: -0.321; that for CCGACUGAAUCAUAUAUCUTT against Rpp25 was inactive: -0.489.
As for CGCACAAAGGAUUUUUGUATT against Epha7, the z-score was inactive: -0.064.
Turning to GGAUCAACAUCAGAGUUCUTT against Zfp119b, the z-score was inactive: -0.562.
The value for CCGGAUCCAGCCAAUCAAATT against Fkbpl was inactive: 1.03.
The value for GGCUUUUGAGAUUGCUAAATT against Mfap3l was inactive: -0.491.
The figure for GGGACUGUAAUACCAUGAUTT against Rnase10 is inactive: 0.0343; for GGAACAAGUACAUACUUAUTT against Frs2 it is active: 2.09; for GGUAUUCCUCUAGAUCAGATT against Dysf it is inactive: 0.627.
Take GGAAAUACUCUCAUCAUCGTT against Olfr214: the z-score was inactive: -1.17.
The value for GGCUGUAUGCUCAGACUGATT against Olfr147 was inactive: -1.25; that for CCUGAUUCAUAUCACUAUUTT against Gpr82 was inactive: 1.17; that for CCCUAGAAACUACAGUAAUTT against Tmem62 was inactive: -1.2.
With GGAGCCUUGGAAGUGAUCUTT against Tmem71, the z-score is inactive: -0.515.
The value for GCGUGUUAGGAAAAACUCUTT against Pars2 was inactive: 1.36.
The figure for AAUAGACUGGUACUCUCUGTT against Olfr476 is inactive: 1.08.
The value for CCUCUUAGCCGGGUAGAGATT against S100a16 was inactive: 0.41; that for GCUAUUGGUGCUUCAGUCCTT against Rtel1 was inactive: -0.458; that for GGAUAUUAUUCUCACACUATT against Ddx6 was inactive: -0.134.
As for CGCAGAGGUUUUACUUUAATT against Mycbpap, the z-score is inactive: 1.52.
The value for CCUACUCUGGUAAAACCUUTT against Immp1l was inactive: -0.365.
On to CGGAGUCAAAUUGUAUAAATT against Tm4sf20, for which the z-score was inactive: 0.714.
As to GCUCCUCCAGAUACAUGCUTT against Tbrg1, the z-score is inactive: -0.741.
On to GGUGGUUUGCUCAUUAGAUTT against Cdk5r1, for which the z-score was inactive: 1.81.
The value for CCUGUCACGUCUUGUUUCCTT against Cpn2 was inactive: 0.132; that for GGGUUUCAUCCAGGAUCGATT against Bax was inactive: 0.714; that for GGUGUUUAAACAGCACUGCTT against Map3k7cl was inactive: -0.0862.
The figure for GCCGCUUCUAUUUUCGUGGTT against Glra4 is inactive: 0.0536; for GGACUCAGAACUUGUGUAUTT against Wnt11 it is inactive: 0.513.
The figure for CCUUUUUUUGGUAACUCGUTT against Sox11 is inactive: -0.0308; for CCUCCCUCACUCAAAUUGGTT against Bok it is inactive: -0.758; for GGCCUUCAUCCAACUCUGUTT against Ttc16 it is inactive: -0.777.
Regarding GGGUUAAGCGCAAGUGUAATT against Degs2, the z-score is inactive: 0.331.
